From patent US20200247851A1, “Methods For Generating Epitopes For Binding To Recognition Molecules By Templated Assembly” (TriBiotica LLC, priority 2017, published 2020)
Construct, isoform or probe ends are uncertain for at least one entry. No signal at the amounts used counts as a negative.

Tested on: biotinylated anti-BRD7 Fab (murine IgG1 isotype) (Mus musculus)
Assay: pull-down
Conditions: PBSM; purified native protein; protein details: biotinylated, ThermoFisher; single-stranded DNA

## GCAAAGACATCTGGACACGCCACTTATAGTCTACGTGAAGCACTGCGCTGGAACAGCCTAAAAAAGGAGAAGGAGACTTAGAGGC [#136 unselected Right-aptamer]
  binding result: no binding
